These results are taken from PubChem BioAssay AID2685 (National Center for Advancing Translational Sciences (NCATS), 2010).

Several values for one entry are separate records, joined by “and”; a condition that tells them apart may be missing. Equal values may be shown once. The list shows a part of the results. The main result of the screen is listed elsewhere. These columns were measured beside it and carry no call. Compounds called inactive in the main read-out are mostly missing here. Potencies come from curve fits of mixed quality, noted in brackets. Where a SMILES comes first, the peptide text is derived from it. [ ]: non-standard residue; d: D form. The star is where a group is joined. ξ: configuration not given here. Boc = CC(C)(C)OC(=O)*; ξP = O=C(O)C1CCCN1

The nature of this assay: qHTS Assay for Lipid Storage Modulators in Drosophila S3 Cells.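 For cell number change: cells counted by Cell Tracker Red CMTPX staining in the red channel.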 The following applies: BODIPY lipid droplet fluorescence, 18-24 h; for cell number change: measured here: cell count max response, cells fed with added oleic acid. Summed up:
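Drosophila S3 cells loaded with oleic acid (400 uM, as added) and compounds at several concentrations; lipid droplets imaged by 488-nm laser-scanning cytometry, 500–530 nm intensity and object ratio to cell channel. Percent activity normalized to 20 uM Triacsin C.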
On the technique in general: Quantitative high-throughput screening tests each substance at several concentrations.

Setting [1] is: measured here: cell number channel AC50, cells fed with added oleic acid.
[2] abbreviates: measured here: lipid fluorescence (Fed channel) AC50, cells fed with added oleic acid.

By AC50 is commonly meant the concentration at which the activity in the assay is half-maximal. A high value points to activity only at high concentration. For `Cc1ccsc1C(=O)OCC(=O)NCc1ccc(Cl)cc1`, the cell number change is -13.1%. Further, the AC50 under setting [1] was 1.16 µM [rising, partial curve]. Further, the AC50 under setting [2] is 0.411 µM [falling, single point].

In the case of `CC1CC(=O)Nc2ccccc2N1C(=O)COc1ccc2cc(Br)ccc2c1` (centres undefined), the cell number change was found to be 27.7%. In addition, the AC50 under setting [2] was 29.1 µM [rising, single point].

`CC(=O)Nc1ccc(Br)c2ccccc12`: the cell number change is -53%.

For the compound `O=C(COC(=O)c1ccc(F)cc1)NCCc1ccc(F)cc1`, the cell number change is -28.4%. For the same compound, under setting [1], the AC50 is 2.91 µM [rising, single point]. Further, the AC50 under setting [2] was 2.31 µM [falling, partial curve].

On to `COC(=O)c1ccc(N2CCOCC2)c(NC(=O)c2cccnc2)c1`, for which the cell number change amounted to 34.2%. Moreover, under setting [2], the AC50 is 25.1 µM [rising, single point].

For `O=S1(=O)CCOC[C@H](CC2CCCCC2)N1Cc1ccccc1F`, the cell number change is 23.9%. Also, under setting [2], the AC50 is 29.1 µM [rising, single point].

As for `COCCNC(=O)CN(C(=O)CCC(=O)Nc1ccccn1)c1ccccc1F`, the cell number change was -6.18%. Moreover, the AC50 under setting [1] is 2.91 µM [rising, single point].

`CCCC(=O)Nc1cc(C)c(NC(=O)c2ccncc2)cn1`: the cell number change turned out to be 16.3%. Also, the AC50 under setting [2] was 29.1 µM [rising, single point].

With `COc1ccc2[nH]c(C(=O)N3CCC(n4nccc4NC(=O)C4CC4)CC3)c(C)c2c1`, the cell number change is -12.7%.

As to `Fc1cccc(Nc2nc3ccccc3n3nnnc23)c1`, the cell number change is 2.92%. Besides, the AC50 under setting [2] was 0.164 µM [rising, full curve, poor fit].

As for `COc1ccc(-c2cn(CCN)c(-c3ccncc3)n2)cc1`, the cell number change is -3.5%.

Regarding `COC(=O)CNC(=O)C1CCCN1C(=O)CNC(=O)OC(C)(C)C` (stereo not drawn) (Boc-Gly-[ξP]-Gly-OMe), the cell number change is -0.392%.

Regarding `O=C(CCC(=O)N1CCCc2ccccc21)N1CCN(S(=O)(=O)c2ccccc2)CC1`, the cell number change is -0.0874%. Besides, under setting [2], the AC50 is 6.51 µM [rising, single point].

For the compound `Cc1ccc(N(CC(O)COCc2ccco2)S(=O)(=O)c2ccc(C)cc2)cc1` (centres undefined), the cell number change was -0.738%. In addition, the AC50 under setting [1] is 0.731 µM [falling, single point]. Besides, under setting [2], the AC50 is 14.6 µM [falling, partial curve, poor fit].

For the compound `Cn1ccc(C(=O)Nc2ccc(Br)cc2Br)n1`, the cell number change was -3.08%. The AC50 under setting [2] is 4.61 µM [falling, single point].

On to `CCN(CC)C(=O)c1ccc2c(=O)n(Cc3cccc(Br)c3)c(=S)[nH]c2c1`, for which the half-maximal activity concentration (AC50) under setting [1] is 2.91 µM [rising, single point].

Regarding `Cc1cccc(Nc2nc(N)c([N+](=O)[O-])c(N3CCC(C)CC3)n2)c1`, the cell number change is -53.5%. Moreover, the half-maximal activity concentration (AC50) under setting [2] was 4.11 µM [falling, partial curve].

For the compound `O=C(C1CCN(c2nnc(-n3cccc3)s2)CC1)N1CCN(c2cccc(C(F)(F)F)c2)CC1`, the cell number change is -19.7%. Besides, the AC50 under setting [2] was 18.4 µM [rising, single point].

Regarding `Cc1cc(C)c2cc(C(=O)Nc3ccc4c(c3)OCO4)[nH]c2c1`, the AC50 is, setting by setting: under setting [1], 1.64 µM [rising, partial curve]; under setting [2], 6.51 µM [rising, single point].

For the compound `Cc1cccc(NC(=O)NCCN2C(=O)C3C4C=CC(C4)C3C2=O)c1` (centres undefined), the cell number change came out at 33.8%. Besides, the AC50 under setting [1] was 29.1 µM [rising, single point].

For `Cc1c(NC(=O)C(C)Sc2ccccc2)c(=O)n(-c2ccccc2)n1C` (centres undefined), the cell number change was 6.41%. Further, under setting [2], the AC50 was 29.1 µM [rising, single point].

Take `COc1ccc(-c2cc(C(=O)N3CCN(c4ncccn4)CC3)c3ccccc3n2)cc1`: the cell number change is -8.41%. Moreover, under setting [2], the AC50 is 0.00461 µM [rising, full curve, poor fit].

Consider `COc1ccc2[nH]c3c(NCCCOC(C)C)ncnc3c2c1`, for which the cell number change was -25.2%. The AC50 under setting [2] is 0.0259 µM [falling, full curve, poor fit].

With `CCOC(=O)C1=C(C)NC(=O)C(C(N)=O)C12CCCC2` (centres undefined), the cell number change was -54.7%. Also, the AC50 under setting [1] was 3.66 µM [falling, full curve]. The AC50 under setting [2] is 3.66 µM [falling, full curve].

Regarding `CC(NC(=O)c1cccc(OC2CCN(C(=O)C3CC3)CC2)c1)c1ccc(F)cc1` (centres undefined), the AC50 under setting [2] was 0.58 µM [falling, single point].

In the case of `O=C(NC(Nc1ccccn1)C(Cl)(Cl)Cl)c1ccccc1` (centres undefined), the cell number change is -38.5%.

Turning to `CC1CCCCN1C(=O)c1cccc(NC2=C(Cl)C(=O)N(Cc3ccccc3)C2=O)c1` (centres undefined), the cell number change was -20.7%. Further, under setting [2], the AC50 was 0.82 µM [rising, full curve, poor fit].

Turning to `CCCCOc1ccc(/C=N/NC(=O)c2csc(C)c2C)cc1`, the cell number change came to 24.1%.

As to `Nc1ccccc1N=Nc1ccccc1N`, the cell number change is -17.7%.

In the case of `Cn1cc(CN2CCC(C(=O)Nc3cccc(-c4cscn4)c3)CC2)cn1`, the cell number change amounted to 13.9%. Also, the AC50 under setting [2] was 29.1 µM [rising, single point].

On to `Cc1cccc(NCc2cc(Cl)ccc2O)n1`, for which the cell number change is -49.4%. Further, the AC50 under setting [1] was 23.1 µM [falling, partial curve]. Further, under setting [2], the AC50 is 23.1 µM [falling, single point].

As for `O=C(COC(=O)c1c[nH]c2ccccc12)Nc1ccc(F)cc1`, the cell number change was -28.3%. Besides, the AC50 under setting [2] was 20.6 µM [falling, single point].

As to `COc1cc(C=O)cc(Br)c1OCC(N)=O`, the cell number change was -8.94%. Moreover, under setting [2], the concentration at half-maximal activity (AC50) was 25.9 µM [rising, single point].

On to `Cn1nc(-c2ccccc2)c(C(O)c2ccccc2C(F)(F)F)c1Cl` (centres undefined), for which the cell number change was -89.8%. Also, under setting [1], the AC50 was 18.4 µM [falling, partial curve]. For the same compound, under setting [2], the half-maximal activity concentration (AC50) is 29.1 µM [falling, single point].

For the compound `O=C(CNC(=O)c1ccc(S(=O)(=O)N2CCCC2)cc1)N/N=C/c1c(Cl)cccc1Cl`, the cell number change worked out at 14.1%. Besides, the half-maximal activity concentration (AC50) under setting [2] is 29.1 µM [rising, single point].

As for `Cc1ccccc1OCC(=O)Nc1ccc2c(c1)ncn2C`, the cell number change was -17.1%. Moreover, under setting [2], the AC50 was 0.13 µM [falling, full curve, poor fit].

Regarding `Fc1ccc(C2=NN(c3ccccc3)C(c3ccco3)C2)cc1` (centres undefined), the cell number change was 7.4%.

For `COc1cc(C(=O)Nc2cccc(-c3nc4ncccc4o3)c2C)cc(OC)c1OC`, the cell number change came to 12.4%. Also, the AC50 under setting [1] is 4.11 µM [rising, single point]. Further, the AC50 under setting [2] is 0.58 µM [rising, full curve, poor fit].

For `C/C(=N\NC(=O)c1cc(-c2ccc(C)s2)[nH]n1)c1ccncc1`, the cell number change is -5.88%.

For the compound `CCC(C)NC(=O)c1ccc2c(Cl)c3c(nc2c1)CCC3` (centres undefined), the cell number change was -24.7%. Besides, under setting [2], the AC50 is 0.092 µM [falling, full curve, poor fit].

With `O=C(c1ccc(N2CCOCC2)c([N+](=O)[O-])c1)N1CCN(Cc2ccccc2)CC1`, the cell number change is -12.8%.

For `COc1ccc(OC)c(NC(=O)C2CCCN(S(=O)(=O)c3cccc4cccnc34)C2)c1` (centres undefined), the AC50 under setting [2] is 0.00517 µM [rising, full curve, poor fit].

Regarding `Cc1ccc(N=C2NC(=O)/C(=C/c3cn(C)c4ccccc34)S2)cc1C`, the cell number change stood at 50%. Further, the AC50 under setting [1] is 1.64 µM [rising, full curve]. Besides, the AC50 under setting [2] is 4.11 µM [rising, partial curve].

On to `O=c1c2nnn(-c3ccc(Cl)cc3)c2ncn1Cc1ccccn1`, for which the cell number change worked out at 37.7%. Also, the AC50 under setting [1] was 18.4 µM [rising, single point]. Also, under setting [2], the AC50 was 29.1 µM [rising, single point].

As to `c1cncc(Nc2nc(-c3cccnc3)cs2)c1`, the cell number change is -13.3%. Moreover, the AC50 under setting [2] was 18.4 µM [rising, single point].

Take `CC1(C)OC(=O)C=C(CC2NS(=O)(=O)OC3CCCCC23)O1` (centres undefined): the cell number change came to 7.78%.

Turning to `Cc1ccccc1Oc1ncnc(N)c1[N+](=O)[O-]`, the cell number change is -11.3%. The AC50 under setting [1] was 6.51 µM [falling, single point]. The half-maximal activity concentration (AC50) under setting [2] is 6.51 µM [falling, partial curve].

For the compound `Cc1cccc(OCc2nnc(SCC(=O)NCC3CCCO3)n2C)c1` (centres undefined), the cell number change is -11.9%. In addition, the AC50 under setting [1] was 0.164 µM [falling, full curve, poor fit]. In addition, under setting [2], the AC50 was 29.1 µM [rising, single point].

Turning to `Oc1ccc(COCc2ccccc2)c2cccnc12`, the cell number change is 3.24% and -44.8%. Under setting [1], the AC50 is 18.4 µM [falling, single point]. In addition, the AC50 under setting [2] was 14.6 µM [falling, partial curve].

For the compound `O=C(c1ccc(CSc2ccccc2)cc1)N1CCN(c2ccccc2)CC1`, the cell number change was 11.4%. In addition, the half-maximal activity concentration (AC50) under setting [2] is 0.82 µM [falling, single point].

For the compound `CC(C)CC(=O)N1CCN(C(=O)c2cccc(F)c2)CC1`, the cell number change is -15.9%. The AC50 under setting [2] was 23.1 µM [rising, single point].

With `CCCn1c(SCN2C(=O)c3ccccc3C2=O)nc2cc(Cl)ccc2c1=O`, the cell number change is -17.5%. Further, under setting [2], the AC50 is 6.51 µM [rising, single point].

For `COc1ccc(-c2ccc(=O)n(CC(=O)NCC3COCCO3)n2)cc1` (centres undefined), the cell number change is -4.82%.

`Cc1ccc(SCC(=O)Nc2ccc3c(c2)OCCO3)cc1`: the AC50 under setting [2] was 0.326 µM [falling, full curve].

As for `FC(F)(F)c1ccc(Cl)c(NC2=NCCCCC2)c1`, the cell number change was found to be 9.72%. Also, the AC50 under setting [2] was 6.51 µM [falling, single point].

As to `CCOc1cc(-c2sc(Nc3cc(C)ccc3OC)n[n+]2-c2ccccc2)ccc1OC`, the cell number change was -37.7%. For the same compound, the AC50 under setting [2] is 18.4 µM [falling, single point].

Consider `Cc1cc(S(=O)(=O)N2CCCC2)ccc1OCC(=O)N1CCC(C(N)=O)CC1`, for which the cell number change was -13.2%. Besides, under setting [2], the AC50 was 4.11 µM [falling, single point].

Turning to `C/C(=C\C(=O)Nc1nccs1)c1ccccc1`, the cell number change was -9.89%. Also, the AC50 under setting [2] was 14.6 µM [rising, partial curve].

In the case of `CN(CCCNC(=O)C1CCC(CNS(=O)(=O)c2ccccc2)CC1)Cc1ccccc1` (centres undefined), the cell number change came out at 19.8%.

For `O=C(COC(=O)C1(c2ccccc2F)CCCC1)N1CCN(C(=O)c2ccco2)CC1`, the cell number change is -2.31%.

As to `CCC1CCCCN1C(=O)COC(=O)c1ccc(Br)o1` (centres undefined), the cell number change is -5.49%. Further, the AC50 under setting [2] is 23.1 µM [falling, single point].

As to `O=C(CSc1ccc(F)cc1)Nc1ccc(N2CCOCC2)c(Cl)c1`, the cell number change was -10.1%. In addition, under setting [2], the AC50 was 4.61 µM [rising, single point].

In the case of `COc1cccc(C(=O)Nc2cccc3cccnc23)c1OC`, the cell number change was -2.35%.
